In patent publication US5286492A, “Method of treatment of Heliobacter pylori infections with triclosan” (Reckitt & Colman Products Limited, priority 1990, dated 1994):

System: Helicobacter pylori
Experiment: MIC50/MIC90 versus Helicobacter pylori by agar dilution technique at neutral pH
Assay type: cell-based
Description: The in vitro activities of a range of antimicrobial compounds versus Helicobacter pylori were determined by methods based on those of McNulty et al (Antimicrobial Agents and Chemotherapy, 28, 837-838, 1985). The Minimum Inhibitory concentrations for 50% and 90% of the strains used (MIC50 and MIC90), versus each antimicrobial were determined using an agar dilution technique.
The MIC of an antimicrobial agent was defined as that concentration (in mg per liter of agar) at which less than 1 in 10^5 organisms produced visible colonies.
Helicobacter pylori strains were isolated from gastric antrum biopsy specimens taken at routine endoscopy during investigation of upper gastrointestinal symptoms. They were identified as Helicobacter pylori by their colonial morphology, gram stain appearance and positive rapid urease test. The organisms were stored in liquid nitrogen before use and subcultured for testing by 48 hour incubation, at 37° C. under 10% carbon dioxide in Tryptone Soya Broth (TSB, OXOID, UK) plus 5% horse serum (Tissue Culture Services, UK).
The first test procedure determined the effectiveness of a range of antimicrobial substances versus 16 to 18 strains of Helicobacter pylori at neutral pH. Freshly prepared Isosensitest Agar of pH 7.2 (Oxoid, UK) supplemented with 10% saponinlysed horse blood was used to prepare a dilution series of each antimicrobial from which agar plates were produced. A multipoint inoculator (Denley-Tech, UK) was used to deliver 1 µl of undiluted test culture to the surface of each plate in the dilution series to give approximately 10^6 cfu/spot. The plates were incubated for three days at 37° C. in a microaerobic atmosphere of 6% oxygen and 10% carbon dioxide.
Table 1 presents test data for the twelve selected antimicrobial agents tested against Helicobacter pylori at neutral pH.

CCCCCCCCCCCCCCCC[n+]1ccccc1 [Cetyl pyridinium Cl]
8 µg/mL: MIC50 (72 h, pH 7.2) | MIC90 (pH 7.2) | MIC (pH 7.2, read-out: MIC Range)
